“And” between values parts separate entries of the source, which are not always exact repeats. Equal values may be shown once. Out of some 400,000 compounds screened, about 13,000 (3.2%) were called active. Inconclusive means that the source gave no clear call. Such entries were picked first, then a sample of the others. Calls follow the shape of the dose curve; as a rule, active = well fitted cell-killing curve with a large enough effect; inconclusive = small, poorly fitted or top-dose-only effect, or effect the other way; inactive = flat fitted curve, though single readings scatter. Potencies of inconclusive entries are doubtful fits and often do not repeat.
Assay: qHTS assay for MDR1-selective chemotherapeutics: Primary screen using the drug-selected MDR subline cells KB-V1; also: nearly all actives have a fitted effect of over 60% in size
Conditions: KB-V1 MDR cells viability, CellTiter-Glo, 72 h; activity change, negative = cytotoxicity: at 46.1 µM (top of the series)
In short: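 Compound-treated KB-V1 multidrug-resistant cells, 72 h, 37 degrees C; viability by CellTiter-Glo. Fitted qHTS curves give the values.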
% is scaled to controls: 0 for no effect and ±100 for the full control effect; potency is read from the fitted curve at half-maximal effect.

SMILES | Potency | activity change, negative = cytotoxicity
COc1ccc(S(=O)(=O)N2CCC(C(=O)Nc3ccc(OC)c(OC)c3)CC2)cc1C | inactive | –
COc1cc(NC(=O)CCc2c(C)nc3c4c(C)cc(C)nc4nn3c2C)cc(OC)c1 | inactive | –
CCOC(=O)N1CCN(C(=O)CNS(=O)(=O)c2c(C)cc(C)cc2C)CC1 | inconclusive: 7.31 µM [cytotoxic, partial curve] | –
Cc1nnsc1Sc1ccccc1 | inconclusive: 14.6 µM [rising, partial curve, poor fit] | –
Cc1cccc(C(=O)Nc2sc(C)c(-c3ccccc3)c2C#N)c1 | inconclusive: 18.4 µM [cytotoxic, single point] | –
C=CCn1c(=N)c(C(=O)NCCCOC)cc2c(=O)n3ccccc3nc21 | inactive | –
CCC(=O)Nc1ccc(S(=O)(=O)NC[C@H]2O[C@@H](n3cnc4c(=O)[nH]c(N)nc43)[C@H](O)[C@@H]2O)cc1 | inactive | –
CC(C)n1ncc2c(C(=O)N3CCN(Cc4ccc(Cl)s4)CC3)cc(C3CC3)nc21 | active: 8.2 µM | –
COc1ccc(NC(=O)CN(c2ccccc2OC)S(C)(=O)=O)c(OC)c1 | inactive | –
Cc1ccc(S(=O)(=O)CCN2CCC(n3cccc3)CC2)cc1 | inactive | –
O=C(O)C1CCN(C(=O)CCN2C(=O)S/C(=C\c3ccccc3)C2=O)CC1 | inconclusive: 32.6 µM [rising, single point] | –
COc1ccnc(-n2cccc2C#N)c1C#N | inactive | –
COc1cc(CNCCc2ccccc2)cc(Cl)c1OCc1ccccc1 | active: 18.4 µM | –
CCOc1ccc(C(O)(CCC(C)C)C(CN2CCOCC2)c2ccccc2)cc1 (stereo not given) | inconclusive: 18.4 µM [cytotoxic, single point] | –
C[C@@H]1CCC(=O)N(C[C@@H](C)CSc2ccc(Br)cc2)CC1 | inconclusive: 18.4 µM [cytotoxic, single point] and inconclusive: 29.1 µM [cytotoxic, single point] | –
COC(=O)c1ccc2c(=O)n(CCCCCC(=O)NC(C)C)c(=O)[nH]c2c1 | inactive | –
Cc1ccccc1OCCCSc1nc2ccccc2[nH]1 | active: 11.6 µM | –
CN(C)CCNc1ncnc2c1sc1nc(-c3ccccc3)c3c(c12)CCCC3 | inconclusive: 23.1 µM [cytotoxic, partial curve] | –
COc1ccc(NC(=O)c2ccc(NC(=O)c3nc4nccc(C)n4n3)cc2)cc1 | inconclusive: 23.1 µM [rising, single point] | –
O=C(CCNS(=O)(=O)c1cccs1)NC1CCN(Cc2ccccc2)CC1 | inconclusive: 29.1 µM [rising, single point] | –
CC(=O)C(Sc1nc(NC(C)(C)C)nc(N(C)C)n1)C(C)=O | inconclusive: 29.1 µM [cytotoxic, single point] | –
CC(C)c1ccc(NC(=S)NCCc2c[nH]c3ccccc23)cc1 | inconclusive: 23.1 µM [cytotoxic, single point] | –
COc1cccc(C(=O)Nc2ccc(-c3nnc(-c4ccco4)o3)cc2)c1 | – | inconclusive: 31.9%
COc1cc(OC)cc(C(=O)N2CCN(c3ncccn3)CC2)c1 | inconclusive: 20.6 µM [cytotoxic, single point] | –

SMILES | Potency | activity change, negative = cytotoxicity
COc1ccc(NC(=S)N/N=C/c2cccn2Cc2ccc(F)cc2Cl)cc1 | inconclusive: 10.3 µM [cytotoxic, partial curve] | –
COc1cc(C(=O)NCC(c2ccccc2)N(C)C)ccc1OCc1c(C)noc1C (stereo not given) | inconclusive: 20.6 µM [cytotoxic, single point] | –
Nc1cc2c(cc1Cl)-c1ccc(Cl)cc1C2 | inactive | –
COc1ccc(CCN(C)C(=O)CSc2nnnn2C)cc1OC | inconclusive: 16.4 µM [rising, partial curve, poor fit] | –
COc1ccccc1N(CC(=O)NC1CCCCC1)C(=O)Cn1nnc(-c2ccc(C)o2)n1 | inconclusive: 4.11 µM [cytotoxic, full curve] | –
Cc1cccc(NC(NC(=O)Cc2ccccc2)C(Cl)(Cl)Cl)c1 (stereo not given) | inconclusive: 14.6 µM [cytotoxic, partial curve] | –
CN(C)S(=O)(=O)c1ccc(C(=O)NCCSc2ccc(Br)cc2)cc1 | inconclusive: 16.4 µM [cytotoxic, partial curve] | –
CC(C)c1ccccc1OCC(=O)NCC(c1cccs1)N1CCOCC1 (stereo not given) | active: 18.4 µM | –
O=C(CNC(=O)N1CC(=O)Nc2ccccc21)NCc1ccccc1Cl | inconclusive: 20.6 µM [rising, single point] | –
CN1CCc2cccc3c2[C@@H]1Cc1ccc(O)c(O)c1-3 | inconclusive: 18.4 µM [cytotoxic, single point] | –
CC(C)CC1COC(=O)N1 (stereo not given) | inconclusive: 29.1 µM [rising, single point] | –
O=[N+]([O-])c1ccc(O)c(C=Nc2ccc3c(c2)OCO3)c1 | inactive | –
Cc1cccc(N2CCN(C(=O)c3ccc(N4CCCC4=O)cc3)CC2)c1C | inconclusive: 25.9 µM [cytotoxic, partial curve, poor fit] | –
COc1ccc2c(c1)c1nc3ccccc3nc1n2CCn1c(=O)oc2ccccc21 | inactive | –
CCOC(=O)c1cnc2c(c(C)nn2C)c1Oc1ccc(OC)cc1 | inconclusive: 1.84 µM [cytotoxic, partial curve, poor fit] | –
COc1cc(C2C(C#N)=C(N)Oc3n[nH]c(C)c32)ccc1OC(=O)c1ccccc1 (stereo not given) | inconclusive: 2.91 µM [rising, full curve, poor fit] | –
C=CCn1c(=N)n(CC(O)COc2ccccc2OC)c2ccccc21 (stereo not given) | inactive | –
Cc1nn(-c2ccccc2)c(Cl)c1/C=N/NC(=O)OC(C)(C)C | active: 13 µM | –
CC1(C)C([N+](=O)[O-])C(c2ccccc2O)NC(c2ccccc2O)C1[N+](=O)[O-] (stereo not given) | inconclusive: 20.6 µM [cytotoxic, partial curve, poor fit] | –
Cn1nccc1C(=O)Nn1cnnc1 | inactive | –
CCOCCCNc1ncnc2c1[nH]c1ccccc12 | inconclusive: 25.9 µM [cytotoxic, single point] | –
C/C(=N\Nc1c(Cl)c(Cl)nc(C(=O)O)c1Cl)c1ccc(O)cc1 | inconclusive: 6.51 µM [rising, partial curve, poor fit] | –
CCc1nc2c(OCc3cc(Cl)cc(Cl)c3)cccn2c1N(C)C(=O)c1ccc(OC)cc1 | inconclusive: 20.6 µM [cytotoxic, single point] | –
Clc1cccc(Cl)c1CNCCCSc1ncccn1 | inactive | –

One compound at a time (already shown).
Cc1nn(-c2ccccc2)c(Cl)c1/C=N/NC(=O)OC(C)(C)C in the list: Potency: active: 13 µM
COc1ccc(NC(=S)N/N=C/c2cccn2Cc2ccc(F)cc2Cl)cc1 in the list: Potency: inconclusive: 10.3 µM [cytotoxic, partial curve]
COc1ccc(CCN(C)C(=O)CSc2nnnn2C)cc1OC in the list: Potency: inconclusive: 16.4 µM [rising, partial curve, poor fit]

(further entries)

SMILES | Potency | activity change, negative = cytotoxicity
CC1Sc2ccc(S(=O)(=O)CCC(=O)N3CCCCC3)cc2NC1=O (stereo not given) | – | inconclusive: -43.8%
Cc1cc(C)n(-c2ccc(C(=O)N3CCC(CO)(Cc4ccccc4)CC3)cc2)n1 | inactive | –
Cc1ccccc1CCN(C(=O)Cn1nnc2ccccc21)C(C(=O)NC(C)(C)C)c1ccsc1 (stereo not given) | inconclusive: 10.3 µM [cytotoxic, partial curve] | –
Cc1ccc(NC(=O)C(=O)NCCCN2CCOCC2)cc1C | inactive | –
Cc1cccc(NC(=O)c2c(C)nn(-c3ccccc3)c2Cl)c1 | inconclusive: 18.4 µM [cytotoxic, single point] | –
C[C@@H]1CN([C@H](C)CO)C(=O)c2cc(NC(=O)Nc3ccc(F)cc3)ccc2O[C@@H](C)CCCCO[C@H]1CN(C)S(=O)(=O)c1ccc(Cl)cc1 | inactive | –
O=C(CN1c2ccccc2Sc2ccccc21)N/N=C/c1ccc([N+](=O)[O-])cc1 | inconclusive: 25.9 µM [cytotoxic, single point] | –
Cc1nc(-c2cnn(-c3ccccc3)c2)c2cc(C)oc2n1 | inconclusive: 23.1 µM [cytotoxic, single point] | –
CN1CCN(c2ncnc3c2ncn3[C@H]2CN(Cc3cccnc3)C[C@@H](CO)O2)CC1 | inactive | –
Cc1cc(C)cc(Oc2coc3cc(O)ccc3c2=O)c1 | inconclusive: 29.1 µM [rising, single point] | –
COc1ccc([C@H]2CN(Cc3ccccc3)C(=O)[C@@H]2CC(=O)Nc2ccccc2)cc1 | inconclusive: 11.6 µM [cytotoxic, partial curve] | –
COc1ccc(C2OC(CCc3ccccc3)CC3=C2C(=O)OC(C)(C)O3)cc1 (stereo not given) | inactive | –
CCN(C[C@H]1N[C@@](C)(C(=O)OC)[C@H]2C(=O)N(C)C(=O)[C@@H]12)S(=O)(=O)c1ccc(-c2ccccc2)cc1 | inconclusive: 20.6 µM [cytotoxic, single point] | –
Cn1c(Sc2ccc(Br)cc2)c(C=O)c2ccccc21 | inconclusive: 29.1 µM [cytotoxic, single point] | –
Cc1occc1C(=O)Nc1ccc2c(c1)OCCO2 | active: 13 µM | –
CCc1c(C(=O)N2CCOCC2)csc1C | inactive | –
O=S(=O)(NCC(c1ccco1)N1CCN(c2ccccc2F)CC1)c1ccc2c(c1)OCCO2 (stereo not given) | inconclusive: 8.2 µM [cytotoxic, partial curve] | –
COCCN(CC(=O)Nc1cccc(C)c1C)C(=O)c1ccc(S(=O)(=O)N2CCOCC2)cc1 | inconclusive: 9.2 µM [rising, partial curve] | –
COc1ccc(CN2C(=O)C(C)Nc3ncnc(N4CCOCC4)c32)cc1 (stereo not given) | active: 18.4 µM | –
COc1ccc(CNc2ccc([N+](=O)[O-])cc2C)cc1 | inconclusive: 25.9 µM [cytotoxic, single point] | –
CC(C)N(CC#CC(O)(c1ccccc1)c1ccccc1)C(C)C | inconclusive: 29.1 µM [cytotoxic, single point] | –
O=C(/C=C/c1cccc([N+](=O)[O-])c1)OCC(=O)c1ccccc1 | inconclusive: 29.1 µM [rising, single point] | –

From PubChem BioAssay AID1347076 (National Center for Advancing Translational Sciences (NCATS), 2019)
